Results taken from PMC9091226.
Results are given in words; binding and its absence hold for the method and conditions named. Binding seen in cells or lysates may run through a third protein. Binding calls can cover weak binding; strength is not graded here. Where a sequence is shown, tags or fusion partners need not be part of it.

Target: T1, HiBiT-tagged HK2 (hexokinase 2), endogenously tagged in HL60 cells (human (endogenous in HL60)) (UniProt P52789)
T1 sequence: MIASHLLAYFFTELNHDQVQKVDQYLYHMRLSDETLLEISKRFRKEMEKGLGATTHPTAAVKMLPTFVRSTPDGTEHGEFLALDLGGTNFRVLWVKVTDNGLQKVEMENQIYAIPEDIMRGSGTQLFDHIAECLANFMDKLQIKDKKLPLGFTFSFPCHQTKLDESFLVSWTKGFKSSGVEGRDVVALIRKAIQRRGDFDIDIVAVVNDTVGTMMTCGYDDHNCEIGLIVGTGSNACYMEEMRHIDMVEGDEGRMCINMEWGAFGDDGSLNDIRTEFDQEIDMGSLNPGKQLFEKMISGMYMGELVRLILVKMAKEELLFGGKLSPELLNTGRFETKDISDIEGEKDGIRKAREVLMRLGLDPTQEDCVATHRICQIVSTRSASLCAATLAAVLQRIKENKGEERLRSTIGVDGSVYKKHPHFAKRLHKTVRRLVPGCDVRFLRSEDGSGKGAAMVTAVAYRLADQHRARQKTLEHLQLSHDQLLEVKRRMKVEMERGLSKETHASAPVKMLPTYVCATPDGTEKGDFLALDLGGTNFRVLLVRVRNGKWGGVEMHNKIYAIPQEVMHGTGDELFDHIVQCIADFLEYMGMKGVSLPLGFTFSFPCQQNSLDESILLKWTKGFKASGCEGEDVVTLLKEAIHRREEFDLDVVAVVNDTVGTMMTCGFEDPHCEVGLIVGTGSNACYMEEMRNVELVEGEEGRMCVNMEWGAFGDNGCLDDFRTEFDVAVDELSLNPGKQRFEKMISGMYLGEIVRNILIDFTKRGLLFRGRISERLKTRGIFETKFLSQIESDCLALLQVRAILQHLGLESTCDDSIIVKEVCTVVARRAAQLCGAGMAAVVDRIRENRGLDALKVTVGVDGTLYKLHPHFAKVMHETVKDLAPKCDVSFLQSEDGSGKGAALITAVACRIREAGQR
Assay: proximity ligation; Duolink in situ PLA on fixed, permeabilised HL60 cells with endogenously HiBiT-tagged HK2 or HK3; mouse anti-HiBiT combined with rabbit anti-VDAC or rabbit anti-BIM; with and without ATRA treatment; confocal imaging

In the case of “voltage-dependent anion channel (VDAC) (human (endogenous in HL60))”, the binding was “binds”.
